Data: publication PMC12240322
These are yes or no findings as the source states them, for the method shown. Binding seen in cells or lysates may run through a third protein. Some binding calls cover weakened binding; strength is not graded here.

Sequences of proteins named here, by UniProt entry; tags and fusion partners are left off.
UniProt Q6A078: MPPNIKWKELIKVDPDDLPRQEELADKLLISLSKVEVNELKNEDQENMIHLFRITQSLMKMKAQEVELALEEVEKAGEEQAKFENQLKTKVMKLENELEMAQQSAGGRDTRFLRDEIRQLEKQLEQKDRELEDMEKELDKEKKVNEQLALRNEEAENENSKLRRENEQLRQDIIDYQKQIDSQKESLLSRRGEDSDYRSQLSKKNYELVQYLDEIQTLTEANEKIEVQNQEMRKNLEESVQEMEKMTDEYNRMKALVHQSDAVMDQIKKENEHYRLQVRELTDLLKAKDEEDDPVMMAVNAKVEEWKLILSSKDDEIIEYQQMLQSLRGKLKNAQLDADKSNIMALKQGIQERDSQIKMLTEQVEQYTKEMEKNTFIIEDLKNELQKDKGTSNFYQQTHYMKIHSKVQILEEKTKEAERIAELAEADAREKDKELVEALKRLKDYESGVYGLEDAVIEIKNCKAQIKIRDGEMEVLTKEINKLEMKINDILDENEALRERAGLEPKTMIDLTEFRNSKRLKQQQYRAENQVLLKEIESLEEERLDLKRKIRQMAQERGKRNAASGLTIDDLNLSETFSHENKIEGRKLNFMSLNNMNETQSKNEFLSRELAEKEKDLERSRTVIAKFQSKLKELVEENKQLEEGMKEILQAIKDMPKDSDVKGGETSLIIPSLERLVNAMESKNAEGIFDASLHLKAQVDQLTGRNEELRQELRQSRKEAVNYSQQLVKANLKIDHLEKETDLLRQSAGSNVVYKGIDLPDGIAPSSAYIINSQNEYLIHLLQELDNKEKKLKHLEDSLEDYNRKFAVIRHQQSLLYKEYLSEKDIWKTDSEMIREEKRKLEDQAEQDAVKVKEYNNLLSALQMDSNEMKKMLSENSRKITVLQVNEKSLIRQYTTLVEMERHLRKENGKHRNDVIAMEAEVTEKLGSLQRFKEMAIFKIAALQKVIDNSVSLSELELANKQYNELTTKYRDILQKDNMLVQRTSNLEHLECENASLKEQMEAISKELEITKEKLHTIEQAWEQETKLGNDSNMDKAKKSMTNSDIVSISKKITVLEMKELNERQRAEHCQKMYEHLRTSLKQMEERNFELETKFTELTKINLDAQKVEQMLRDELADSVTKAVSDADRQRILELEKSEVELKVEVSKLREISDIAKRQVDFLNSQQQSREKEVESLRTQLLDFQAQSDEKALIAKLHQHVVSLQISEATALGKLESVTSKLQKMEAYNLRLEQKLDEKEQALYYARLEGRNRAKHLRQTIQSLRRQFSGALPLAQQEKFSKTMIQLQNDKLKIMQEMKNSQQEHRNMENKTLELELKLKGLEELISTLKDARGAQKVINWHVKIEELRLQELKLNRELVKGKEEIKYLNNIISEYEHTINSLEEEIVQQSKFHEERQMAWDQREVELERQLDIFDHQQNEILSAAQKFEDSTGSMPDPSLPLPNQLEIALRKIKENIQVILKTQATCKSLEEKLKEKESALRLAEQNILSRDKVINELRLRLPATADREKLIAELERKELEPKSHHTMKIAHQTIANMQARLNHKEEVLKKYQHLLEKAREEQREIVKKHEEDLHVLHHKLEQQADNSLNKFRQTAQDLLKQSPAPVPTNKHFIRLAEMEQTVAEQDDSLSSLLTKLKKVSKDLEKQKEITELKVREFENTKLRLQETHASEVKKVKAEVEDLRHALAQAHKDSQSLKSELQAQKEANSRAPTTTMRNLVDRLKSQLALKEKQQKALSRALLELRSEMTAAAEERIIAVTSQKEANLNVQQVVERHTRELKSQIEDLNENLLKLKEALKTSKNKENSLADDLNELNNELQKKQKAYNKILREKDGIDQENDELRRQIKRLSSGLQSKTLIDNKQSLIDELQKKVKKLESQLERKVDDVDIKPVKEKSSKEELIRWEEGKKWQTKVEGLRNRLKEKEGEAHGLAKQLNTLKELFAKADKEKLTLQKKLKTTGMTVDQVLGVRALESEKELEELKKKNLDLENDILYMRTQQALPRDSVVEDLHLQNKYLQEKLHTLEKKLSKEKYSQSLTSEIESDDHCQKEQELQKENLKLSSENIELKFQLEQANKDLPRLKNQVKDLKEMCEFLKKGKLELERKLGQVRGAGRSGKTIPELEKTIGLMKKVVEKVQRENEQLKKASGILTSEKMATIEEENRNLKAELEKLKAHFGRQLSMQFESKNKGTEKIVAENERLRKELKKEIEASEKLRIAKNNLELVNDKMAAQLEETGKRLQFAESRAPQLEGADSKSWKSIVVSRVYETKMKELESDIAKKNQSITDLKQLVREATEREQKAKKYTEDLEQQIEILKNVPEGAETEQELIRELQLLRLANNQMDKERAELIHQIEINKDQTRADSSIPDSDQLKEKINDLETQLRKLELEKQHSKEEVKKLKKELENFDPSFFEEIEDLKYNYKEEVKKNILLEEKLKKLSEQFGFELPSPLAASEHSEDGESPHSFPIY
UniProt Q61315: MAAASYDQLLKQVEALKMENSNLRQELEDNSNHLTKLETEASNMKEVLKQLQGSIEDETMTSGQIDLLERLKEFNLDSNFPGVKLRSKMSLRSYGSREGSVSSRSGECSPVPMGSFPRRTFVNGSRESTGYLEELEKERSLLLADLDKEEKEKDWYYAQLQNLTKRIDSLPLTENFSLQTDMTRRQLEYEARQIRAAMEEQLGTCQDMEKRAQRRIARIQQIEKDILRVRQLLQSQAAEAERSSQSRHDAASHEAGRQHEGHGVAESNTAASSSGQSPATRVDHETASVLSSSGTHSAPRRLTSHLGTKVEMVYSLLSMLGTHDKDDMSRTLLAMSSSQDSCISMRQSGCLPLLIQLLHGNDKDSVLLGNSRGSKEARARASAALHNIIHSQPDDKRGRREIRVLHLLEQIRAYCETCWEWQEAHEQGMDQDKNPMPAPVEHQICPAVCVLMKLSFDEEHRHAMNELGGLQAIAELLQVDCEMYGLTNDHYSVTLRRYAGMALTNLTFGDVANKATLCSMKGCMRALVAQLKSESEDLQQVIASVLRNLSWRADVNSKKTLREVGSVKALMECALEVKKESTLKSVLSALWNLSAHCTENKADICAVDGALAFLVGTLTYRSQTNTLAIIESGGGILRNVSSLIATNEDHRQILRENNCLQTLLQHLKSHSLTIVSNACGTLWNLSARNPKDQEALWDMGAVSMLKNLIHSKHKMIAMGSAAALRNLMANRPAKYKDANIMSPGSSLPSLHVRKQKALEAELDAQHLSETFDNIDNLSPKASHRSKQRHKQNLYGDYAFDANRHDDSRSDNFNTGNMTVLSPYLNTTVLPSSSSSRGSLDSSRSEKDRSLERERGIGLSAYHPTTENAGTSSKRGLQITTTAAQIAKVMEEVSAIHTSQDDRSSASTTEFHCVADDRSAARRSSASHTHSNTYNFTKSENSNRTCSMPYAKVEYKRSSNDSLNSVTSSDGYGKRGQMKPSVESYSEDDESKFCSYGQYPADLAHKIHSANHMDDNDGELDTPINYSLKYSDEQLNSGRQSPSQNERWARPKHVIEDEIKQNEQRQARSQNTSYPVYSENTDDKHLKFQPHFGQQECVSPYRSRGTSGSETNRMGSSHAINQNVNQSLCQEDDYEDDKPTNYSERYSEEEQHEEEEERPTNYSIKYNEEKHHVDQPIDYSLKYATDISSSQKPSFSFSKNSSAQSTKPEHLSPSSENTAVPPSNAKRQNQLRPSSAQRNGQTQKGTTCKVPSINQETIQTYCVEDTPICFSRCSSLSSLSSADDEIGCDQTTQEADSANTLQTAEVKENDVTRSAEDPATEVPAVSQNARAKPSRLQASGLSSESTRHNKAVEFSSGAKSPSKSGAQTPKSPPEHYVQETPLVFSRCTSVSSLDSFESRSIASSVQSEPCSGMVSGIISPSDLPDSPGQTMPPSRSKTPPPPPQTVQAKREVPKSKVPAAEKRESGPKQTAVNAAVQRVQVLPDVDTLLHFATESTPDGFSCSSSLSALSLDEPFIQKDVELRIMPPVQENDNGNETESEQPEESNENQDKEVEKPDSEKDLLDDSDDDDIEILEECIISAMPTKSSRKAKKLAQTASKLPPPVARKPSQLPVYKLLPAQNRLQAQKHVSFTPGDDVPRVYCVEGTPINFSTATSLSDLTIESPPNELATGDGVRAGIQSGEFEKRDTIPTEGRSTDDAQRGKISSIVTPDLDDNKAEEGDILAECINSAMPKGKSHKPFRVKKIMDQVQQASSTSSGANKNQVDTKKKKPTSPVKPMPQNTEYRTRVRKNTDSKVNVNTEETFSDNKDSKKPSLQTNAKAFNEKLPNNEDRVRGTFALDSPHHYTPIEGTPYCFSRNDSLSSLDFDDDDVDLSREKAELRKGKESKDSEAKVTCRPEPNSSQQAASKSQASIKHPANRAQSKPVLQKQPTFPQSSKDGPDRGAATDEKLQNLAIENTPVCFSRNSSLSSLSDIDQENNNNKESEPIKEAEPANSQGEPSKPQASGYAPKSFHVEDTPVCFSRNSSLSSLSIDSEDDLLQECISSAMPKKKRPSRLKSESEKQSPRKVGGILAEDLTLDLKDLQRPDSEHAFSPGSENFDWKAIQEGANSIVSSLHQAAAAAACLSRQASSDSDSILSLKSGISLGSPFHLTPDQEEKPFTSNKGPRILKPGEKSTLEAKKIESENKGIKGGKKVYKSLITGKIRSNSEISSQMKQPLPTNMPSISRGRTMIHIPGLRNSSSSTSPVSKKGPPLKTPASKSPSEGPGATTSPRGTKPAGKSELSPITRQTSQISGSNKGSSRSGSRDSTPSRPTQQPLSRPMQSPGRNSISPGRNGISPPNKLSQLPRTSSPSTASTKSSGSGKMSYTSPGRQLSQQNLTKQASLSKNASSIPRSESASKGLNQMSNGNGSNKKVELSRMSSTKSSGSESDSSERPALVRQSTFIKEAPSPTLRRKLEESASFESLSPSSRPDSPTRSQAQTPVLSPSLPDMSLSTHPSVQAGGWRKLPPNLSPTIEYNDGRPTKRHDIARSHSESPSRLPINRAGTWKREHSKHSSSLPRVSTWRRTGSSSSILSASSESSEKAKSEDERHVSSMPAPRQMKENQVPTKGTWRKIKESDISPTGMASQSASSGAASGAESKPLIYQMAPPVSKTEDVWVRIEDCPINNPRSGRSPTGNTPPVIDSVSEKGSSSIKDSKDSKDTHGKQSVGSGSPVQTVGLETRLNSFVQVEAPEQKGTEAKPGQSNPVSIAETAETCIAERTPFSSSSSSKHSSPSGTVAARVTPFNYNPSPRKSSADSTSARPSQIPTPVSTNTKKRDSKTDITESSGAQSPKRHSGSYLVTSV
UniProt Q8VI36: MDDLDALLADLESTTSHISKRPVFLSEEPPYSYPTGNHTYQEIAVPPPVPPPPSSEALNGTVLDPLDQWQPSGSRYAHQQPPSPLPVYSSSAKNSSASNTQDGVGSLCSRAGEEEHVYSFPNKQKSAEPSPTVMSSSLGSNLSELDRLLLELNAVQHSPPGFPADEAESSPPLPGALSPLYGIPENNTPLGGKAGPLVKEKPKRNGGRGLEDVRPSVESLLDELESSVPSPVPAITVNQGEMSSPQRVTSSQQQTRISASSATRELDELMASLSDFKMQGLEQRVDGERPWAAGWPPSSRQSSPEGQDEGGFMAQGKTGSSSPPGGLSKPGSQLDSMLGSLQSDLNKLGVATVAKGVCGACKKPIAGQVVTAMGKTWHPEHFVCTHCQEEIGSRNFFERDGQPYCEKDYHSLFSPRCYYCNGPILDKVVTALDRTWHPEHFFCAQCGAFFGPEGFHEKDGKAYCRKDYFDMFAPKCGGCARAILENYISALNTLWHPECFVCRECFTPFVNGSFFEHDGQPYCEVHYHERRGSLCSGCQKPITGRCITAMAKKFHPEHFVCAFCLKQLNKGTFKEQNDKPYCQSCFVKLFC

How the values were obtained:
[1] = molecular target: PA-tagged CEP290 (centrosomal protein 290) (mouse (endogenous in mIMCD3)) (UniProt Q6A078); assay: co-IP; lysate of PA-CEP290 knock-in mIMCD3 cells; immunoprecipitation with anti-PA, anti-APC or anti-paxillin antibodies, Western blotting
[2] = molecular target: PA-tagged CEP290 (centrosomal protein 290) (mouse (endogenous in mIMCD3)) (UniProt Q6A078); assay: proximity ligation; Duolink PLA on PA-CEP290 mIMCD3 cells fixed with 4% PFA; anti-APC (rabbit) with anti-rabbit IgG-MINUS probe and anti-PA tag-PLUS probe
[3] = molecular target: Adenomatous polyposis coli (APC) (mouse (endogenous in mIMCD3)) (UniProt Q61315); assay: co-IP; lysate of PA-CEP290 knock-in mIMCD3 cells; immunoprecipitation with anti-PA, anti-APC or anti-paxillin antibodies, Western blotting

Substance | binding [1] | binding [2] | binding [3]
Adenomatous polyposis coli (APC) (from UniProt Q61315 1-2845) | binds | binds | –
PA-tagged CEP290 (centrosomal protein 290) (from UniProt Q6A078 1-2472) | – | – | binds
Paxillin (from UniProt Q8VI36 1-591) | no binding | – | –
